These are yes or no findings as the source states them, for the method shown. In cells and extracts the contact can be indirect. Some binding calls cover weakened binding; strength is not graded here.
Target: T1, BCL9 (mouse (endogenous in primary MuSCs)) (UniProt Q9D219)
T1 sequence: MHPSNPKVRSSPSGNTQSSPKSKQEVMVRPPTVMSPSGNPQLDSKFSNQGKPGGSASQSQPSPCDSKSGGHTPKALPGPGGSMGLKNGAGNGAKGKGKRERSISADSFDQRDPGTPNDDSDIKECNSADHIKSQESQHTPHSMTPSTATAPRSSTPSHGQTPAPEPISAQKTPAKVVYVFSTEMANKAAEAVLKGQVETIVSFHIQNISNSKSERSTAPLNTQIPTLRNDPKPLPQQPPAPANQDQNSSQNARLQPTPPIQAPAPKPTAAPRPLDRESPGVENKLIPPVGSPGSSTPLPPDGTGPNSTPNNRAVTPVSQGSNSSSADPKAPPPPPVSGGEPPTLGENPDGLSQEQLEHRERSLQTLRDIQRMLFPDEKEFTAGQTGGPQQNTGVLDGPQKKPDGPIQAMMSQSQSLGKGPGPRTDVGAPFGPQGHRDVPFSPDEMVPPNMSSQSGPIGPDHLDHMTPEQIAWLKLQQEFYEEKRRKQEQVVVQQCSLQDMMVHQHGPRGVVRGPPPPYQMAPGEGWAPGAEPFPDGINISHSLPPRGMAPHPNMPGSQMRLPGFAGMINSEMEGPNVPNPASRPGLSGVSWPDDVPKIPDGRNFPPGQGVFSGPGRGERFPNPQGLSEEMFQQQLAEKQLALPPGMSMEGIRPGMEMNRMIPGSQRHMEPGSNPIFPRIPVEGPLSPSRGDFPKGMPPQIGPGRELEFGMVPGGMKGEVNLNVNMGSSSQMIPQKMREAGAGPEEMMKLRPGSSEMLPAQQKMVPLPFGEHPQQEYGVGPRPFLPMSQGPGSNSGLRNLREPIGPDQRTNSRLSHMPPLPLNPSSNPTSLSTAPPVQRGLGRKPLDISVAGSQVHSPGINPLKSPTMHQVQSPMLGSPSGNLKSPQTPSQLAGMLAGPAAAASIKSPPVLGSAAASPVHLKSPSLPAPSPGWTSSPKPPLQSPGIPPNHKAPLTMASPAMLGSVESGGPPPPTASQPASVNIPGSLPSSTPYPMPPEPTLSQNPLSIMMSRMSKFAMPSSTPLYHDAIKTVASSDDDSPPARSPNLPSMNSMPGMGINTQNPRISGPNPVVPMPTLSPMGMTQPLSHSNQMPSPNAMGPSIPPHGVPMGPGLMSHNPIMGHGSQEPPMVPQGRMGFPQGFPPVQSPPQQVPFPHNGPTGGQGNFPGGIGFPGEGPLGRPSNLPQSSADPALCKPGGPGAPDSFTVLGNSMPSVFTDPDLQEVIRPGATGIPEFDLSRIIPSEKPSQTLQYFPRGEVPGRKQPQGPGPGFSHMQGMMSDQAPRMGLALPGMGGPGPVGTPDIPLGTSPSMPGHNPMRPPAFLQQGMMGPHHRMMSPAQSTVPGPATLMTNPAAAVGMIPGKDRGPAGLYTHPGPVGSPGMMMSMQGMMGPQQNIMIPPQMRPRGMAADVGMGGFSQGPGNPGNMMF
Test: proximity ligation; Duolink in situ PLA with mouse anti-β-catenin and rabbit anti-BCL9 on CTRL SC and LSD1 SCiKO MuSCs treated with Wnt3a (50 ng/ml, 6 h), cytoplasm removed; dots counted in nuclei

Chains of the proteins cited; added tags and fusions are not shown.
UniProt Q02248: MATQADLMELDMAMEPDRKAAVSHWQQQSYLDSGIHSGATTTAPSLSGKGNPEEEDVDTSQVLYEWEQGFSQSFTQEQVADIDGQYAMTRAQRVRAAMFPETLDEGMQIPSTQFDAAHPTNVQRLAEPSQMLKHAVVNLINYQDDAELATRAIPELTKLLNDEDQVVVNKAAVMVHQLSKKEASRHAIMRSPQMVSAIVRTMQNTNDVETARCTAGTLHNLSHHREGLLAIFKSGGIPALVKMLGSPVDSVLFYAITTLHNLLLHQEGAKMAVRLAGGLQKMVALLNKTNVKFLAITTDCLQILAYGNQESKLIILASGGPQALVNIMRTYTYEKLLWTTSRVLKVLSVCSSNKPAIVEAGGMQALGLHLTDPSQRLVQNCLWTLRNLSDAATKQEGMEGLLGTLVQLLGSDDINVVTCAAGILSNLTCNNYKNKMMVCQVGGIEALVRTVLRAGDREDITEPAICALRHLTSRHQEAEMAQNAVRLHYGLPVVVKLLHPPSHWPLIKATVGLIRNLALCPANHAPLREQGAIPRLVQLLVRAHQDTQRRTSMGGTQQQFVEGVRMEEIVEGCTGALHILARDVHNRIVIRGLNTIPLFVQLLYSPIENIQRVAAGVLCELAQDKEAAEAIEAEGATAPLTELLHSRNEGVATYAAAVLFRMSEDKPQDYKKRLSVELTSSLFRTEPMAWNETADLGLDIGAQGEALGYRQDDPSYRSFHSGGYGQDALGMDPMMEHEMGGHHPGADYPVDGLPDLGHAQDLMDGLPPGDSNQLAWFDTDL

“β-catenin (endogenous) (from UniProt Q02248 1-781)” was tested, and the binding was “binds”.

From PMC11040000
